Source: article PMC3776120
These are yes or no findings as the source states them, for the method shown. For part of these data: In cells and extracts the contact can be indirect. Some entries that bind do so weakly or less than the wild type.

Chains of the proteins cited; added tags and fusions are not shown.
UniProt Q969Q1: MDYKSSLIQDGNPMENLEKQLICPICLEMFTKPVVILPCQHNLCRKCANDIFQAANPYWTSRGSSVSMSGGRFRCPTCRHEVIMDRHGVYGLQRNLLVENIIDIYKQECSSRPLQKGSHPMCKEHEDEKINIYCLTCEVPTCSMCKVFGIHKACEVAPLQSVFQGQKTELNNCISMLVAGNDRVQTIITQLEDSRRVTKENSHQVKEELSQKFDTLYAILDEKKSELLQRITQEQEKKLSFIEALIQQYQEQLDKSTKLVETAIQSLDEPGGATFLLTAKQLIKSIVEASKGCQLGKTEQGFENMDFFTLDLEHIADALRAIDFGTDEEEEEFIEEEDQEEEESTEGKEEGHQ
UniProt Q9BYV6: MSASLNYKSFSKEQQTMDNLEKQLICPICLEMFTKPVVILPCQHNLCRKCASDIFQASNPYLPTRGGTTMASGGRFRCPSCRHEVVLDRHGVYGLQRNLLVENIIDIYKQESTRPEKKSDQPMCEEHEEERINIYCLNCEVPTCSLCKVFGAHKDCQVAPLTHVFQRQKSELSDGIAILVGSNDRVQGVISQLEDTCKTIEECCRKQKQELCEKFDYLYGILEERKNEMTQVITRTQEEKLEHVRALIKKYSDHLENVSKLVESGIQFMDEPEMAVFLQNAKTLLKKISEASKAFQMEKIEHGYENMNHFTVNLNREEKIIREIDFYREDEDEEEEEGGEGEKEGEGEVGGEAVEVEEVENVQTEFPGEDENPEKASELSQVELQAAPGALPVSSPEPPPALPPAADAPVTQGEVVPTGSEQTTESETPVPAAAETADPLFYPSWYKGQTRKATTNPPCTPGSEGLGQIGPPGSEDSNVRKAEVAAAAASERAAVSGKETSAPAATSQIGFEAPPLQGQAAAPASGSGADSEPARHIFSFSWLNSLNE
UniProt Q38HM4: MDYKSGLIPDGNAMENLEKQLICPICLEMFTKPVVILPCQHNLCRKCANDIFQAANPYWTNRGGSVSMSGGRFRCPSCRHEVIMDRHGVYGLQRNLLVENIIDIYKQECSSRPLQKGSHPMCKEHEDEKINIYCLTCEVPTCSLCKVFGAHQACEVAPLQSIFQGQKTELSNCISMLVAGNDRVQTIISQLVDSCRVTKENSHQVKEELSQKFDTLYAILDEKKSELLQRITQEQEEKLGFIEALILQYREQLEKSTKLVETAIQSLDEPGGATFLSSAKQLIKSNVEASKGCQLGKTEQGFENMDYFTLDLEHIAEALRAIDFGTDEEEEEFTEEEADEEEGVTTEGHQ

B1: Endophilin B1/Bif-1 (yeast two-hybrid prey clone) (protein, UniProt Q9Y371 1-365)
chain: MNIMDFNVKKLAADAGTFLSRAVQFTEEKLGQAEKTELDAHLENLLSKAECTKIWTEKIMKQTEVLLQPNPNARIEEFVYEKLDRKAPSRINNPELLGQYMIDAGTEFGPGTAYGNALIKCGETQKRIGTADRELIQTSALNFLTPLRNFIEGDYKTIAKERKLLQNKRLDLDAAKTRLKKAKAAETRNSSEQELRITQSEFDRQAEITRLLLEGISSTHAHHLRCLNDFVEAQMTYYAQCYQYMLDLQKQLGSFPSNYLSNNNQTSVTPVPSVLPNAIGSSAMASTSGLVITSPSNLSDLKECSGSRKARVLYDYDAANSTELSLLADEVITVFSVVGMDSDWLMGERGNQKGKVPITYLELLN
B2: Endophilin B1/Bif-1 (protein, UniProt Q9JK48-1 1-365)
chain: MNIMDFNVKKLAADAGTFLSRAVQFTEEKLGQAEKTELDAHLENLLSKAECTKIWTEKIMKQTEVLLQPNPNARIEEFVYEKLDRKAPSRINNPELLGQYMIDAGTEFGPGTAYGNALIKCGETQKRIGTADRELIQTSALNFLTPLRNFIEGDYKTIAKERKLLQNKRLDLDAAKTRLKKAKAAETKSSSEQELRITQSEFDRQAEITRLLLEGISSTHAHHLRCLNDFVEAQMTYYAQCYQYMLDLQKQLGSFPSNYLSNNNQTSGTPVPYALSNAIGPSAQASTGSLVITCPSNLNDLKESSNNRKARVLYDYDAANSTELSLLADEVITVFSVVGMDSDWLMGERGNQKGKVPITYLELLN

Assays:
[1] = target: MuRF1 (yeast two-hybrid construct) (UniProt Q969Q1); test: two-hybrid; yeast mating experiments, β-galactosidase reporter; Bif-1 as prey clone
[2] = target: MuRF2 (yeast two-hybrid construct) (UniProt Q9BYV6); test: as above
[3] = target: MuRF1 (mouse (endogenous in skeletal muscle)) (UniProt Q38HM4); test: co-IP; quadriceps extracts of WT and MuRF1-KO mice starved for 24 h; 50 mM Tris/Cl pH 8.0, 150 mM NaCl, 1 % NP40, 10 % glycerol, 1 mM DTT; MuRF1 precipitated with rabbit polyclonal anti-RING H2 MuRF1 antibody and Protein A-sepharose at 4 °C; Western blot for Bif-1

Binder	binding [1]	binding [2]	binding [3]
B1	binds	no binding	
B2			binds
